This is an account of results in US20190262383.

By UniProt entry, the sequences of proteins in these tests, tags left out. Residues count along the entry.
UniProt P32248, 25-378: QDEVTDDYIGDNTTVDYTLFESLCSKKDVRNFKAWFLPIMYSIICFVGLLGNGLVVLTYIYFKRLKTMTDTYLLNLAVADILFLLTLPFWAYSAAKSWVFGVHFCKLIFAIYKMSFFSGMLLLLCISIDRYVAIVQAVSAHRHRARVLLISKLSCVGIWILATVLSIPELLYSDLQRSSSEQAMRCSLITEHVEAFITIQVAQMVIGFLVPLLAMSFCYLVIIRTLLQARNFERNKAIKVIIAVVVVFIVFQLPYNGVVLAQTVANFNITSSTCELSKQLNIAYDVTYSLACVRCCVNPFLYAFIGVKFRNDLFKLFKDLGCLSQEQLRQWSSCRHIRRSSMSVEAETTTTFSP

For some assays here: A weaker result is weaker than the reference pair of the same experiment. For some assays here: Where cells or extracts were used, other partners may take part.

The target in data set [1] is T1, CCR7 (C-C chemokine receptor type 7) (Homo sapiens?) (UniProt P32248). Put plainly: EMSA. The following applies: gel shift with recombinant CCR7, purified recombinant protein. A general note: Mobility shift assays separate free from complexed probe on a gel.
For data set [2], the target named is T1, CCR7 (C-C chemokine receptor type 7). As to the kind of experiment: flow cytometry. The following applies: HeLa-CCR7 ++; H9 ++; human memory CD4+ T cells + (10-25%); protein on the cell surface.

Consider “GGGAGGACGAUGCGGUCCAUCGUCUCUUAUCGUCUCUUGUCGCGCCAGACGACUCGCCCGA [C-6]”, for which the binding result is listed as “binds more weakly” in data set [1] and “binds” in data set [2].
